Measurements reported in PubChem BioAssay AID1259405 (NCATS, 2018).

Test: 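Mouse-designed siRNAs used to find CHO productivity engineering targets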 (primary screen)
Cell system: Chinese hamster CHO-K1 ovary cells with stable secreted eGFP expression
Reagents: single siRNA against mouse genes, 0.8 pmol siRNA per well (2 µl of 400 nM stock)
Timing: 3 days
Measurement: 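Percent of the per-plate non-targeting control median for intracellular GFP per well by laser scanning cytometry and for cell viability by ATP luminescence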
Scale: GFP, % of control: higher = more GFP per well, higher productivity; viability (ATP), % of control: higher = more viable cells (more ATP)
Hit rule: 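Called active when intracellular GFP, relative to negative control, is at or above 120%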
This is an unselected part of about 50,000 reagents tested. About 4,000 of all reagents (8%) were called active. 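Mouse siRNA library applied to hamster cells; one well for each siRNA.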 The numbers tell different reagents against one gene apart.

Gene | siRNA no. | GFP, % of control | viability (ATP), % of control | Call
Vmn1r209 | 1 | 134 | 92.6 | active
Vmn1r209 | 2 | 132 | 42.9 | active
Vmn1r209 | 3 | 89.6 | 87.8 | inactive
Apmap | 1 | 63 | 58.1 | inactive
Apmap | 2 | 32 | 39.2 | inactive
Apmap | 3 | 79.7 | 92.9 | inactive
Etfrf1 | 1 | 58.4 | 72 | inactive
Etfrf1 | 2 | 75 | 80.7 | inactive
Etfrf1 | 3 | 94.3 | 107 | inactive
Tmem143 | 1 | 94.8 | 66.1 | inactive
Tmem143 | 2 | 127 | 93.9 | active
Tmem143 | 3 | 58.2 | 22.6 | inactive
Esam | 1 | 63.2 | 51.4 | inactive
Esam | 2 | 118 | 93.3 | inactive
Med11 | 1 | 68.2 | 70.9 | inactive
Med11 | 2 | 74.4 | 47.5 | inactive
Med11 | 3 | 109 | 88.7 | inactive
Hoxc9 | 1 | 90.8 | 119 | inactive
Hoxc9 | 2 | 37 | 24 | inactive
Hoxc9 | 3 | 72.1 | 114 | inactive
Ccdc18 | 1 | 39.5 | 31.6 | inactive
Ccdc18 | 2 | 62.8 | 31.8 | inactive
Ccdc18 | 3 | 43.6 | 72.5 | inactive
Foxa1 | 1 | 94.5 | 131 | inactive
Foxa1 | 2 | 124 | 89.4 | active
Dock8 | 1 | 112 | 71 | inactive
Dock8 | 2 | 88.1 | 71.1 | inactive
Dock8 | 3 | 81.8 | 79.6 | inactive
Ncoa2 | 1 | 83.8 | 79.6 | inactive
Ncoa2 | 2 | 153 | 84.4 | active
Nhej1 | 1 | 66.1 | 68.5 | inactive
Nhej1 | 2 | 74.3 | 109 | inactive
Nhej1 | 3 | 33.1 | 57 | inactive
Il3 | 1 | 67.7 | 54.2 | inactive
Il3 | 2 | 53.3 | 69.8 | inactive
Il3 | 3 | 65.5 | 64.6 | inactive
Ifna13 | 1 | 49.9 | 74.2 | inactive
Ifna13 | 2 | 82.2 | 56.8 | inactive
Ifna13 | 3 | 56.2 | 60.9 | inactive
Lrrc4b | 1 | 105 | 151 | inactive
Lrrc4b | 2 | 62.5 | 51.4 | inactive
Lrrc4b | 3 | 56.2 | 71.2 | inactive
Tacc2 | 1 | 63.9 | 60.6 | inactive
Tacc2 | 2 | 94.6 | 67 | inactive
Tacc2 | 3 | 144 | 115 | active
Defb4 | 1 | 63.7 | 67.4 | inactive
Defb4 | 2 | 106 | 74.5 | inactive
Defb4 | 3 | 77.4 | 72.1 | inactive
Rlbp1 | 1 | 96.2 | 97.5 | inactive
Rlbp1 | 2 | 41.2 | 64.7 | inactive
Rlbp1 | 3 | 87.2 | 75.7 | inactive
Ubac1 | 1 | 84.1 | 42.6 | inactive
Ubac1 | 2 | 87 | 92.6 | inactive
Ubac1 | 3 | 87.6 | 84.8 | inactive
Nopchap1 | 1 | 77.3 | 86.4 | inactive
Nopchap1 | 2 | 51 | 73.2 | inactive
Nopchap1 | 3 | 80.8 | 97.2 | inactive

5 of these entries, reformatted:
Gene,siRNA no.,"GFP, % of control","viability (ATP), % of control",Call
Ifna13,1,49.9,74.2,inactive
Ifna13,2,82.2,56.8,inactive
Ifna13,3,56.2,60.9,inactive
Lrrc4b,1,105,151,inactive
Lrrc4b,2,62.5,51.4,inactive
